Laboratory results reported in paper PMC12221116, “Novel Quinazolinones Active against Multidrug‐Resistant Mycobacterium Tuberculosis: Synthesis, Antimicrobial Evaluation, and in Silico Exploration of Penicillin‐Binding Protein 1A as a Potential Target” (Chemmedchem, 2025).
Converted amounts (≈) assume the structure as drawn.

System: Candida albicans ATCC 24433, CCM 8320
Experiment: Antifungal microdilution broth, quality standards
Format: cell-based
Details: 24 h, read-out: MIC, visual detection, Candida albicans

For `C[C@@H]1[C@H](O)[C@@H](C)/C=C/C=C/C=C/C=C/C=C/C=C/C=C/[C@H](O[C@@H]2O[C@H](C)[C@@H](O)[C@H](N)[C@@H]2O)C[C@@H]2O[C@](O)(C[C@@H](O)C[C@@H](O)[C@H](O)CC[C@@H](O)C[C@@H](O)CC(=O)O[C@H]1C)C[C@H](O)[C@H]2C(=O)O` [amphotericin B], the MIC was 0.5 µg/mL (≈ 0.541 µM).
